In experiment [1] the test system is IL-10 cytokine receptor (JAK1/TYK2). The experiment can be described thus: Human whole blood, IL-10-induced pSTAT3, lymphocytes. The format is cell-based. As to conditions: Lymphocyte, read-out: IC50,u, IL-10, pSTAT3.
A further experiment concerns IFNα cytokine receptor. The experiment can be described thus: cells. The conditions noted are these: Homo sapiens, Lymphocyte, pSTAT3, lymphocytes.

SMILES strings stand for the structures. Where two headings read alike, the source gives them in different places.

Regarding `C[C@@H]1CCN(C(=O)CC#N)C[C@@H]1N(C)c1ncnc2[nH]ccc12` [Tofacitinib], the IC50 in experiment [1] is 64 nM; in the experiment with IFNα cytokine receptor (read-out: human whole blood IFNα IC50, Average, IFNα 5000 U/ml (EC95)), 64 nM; in the experiment on IFNα cytokine receptor (read-out: human whole blood IFNα IC50, Donor A, IFNα 5000 U/ml (EC95)), 62 nM; in the experiment with IFNα cytokine receptor (read-out: human whole blood IFNα IC50, Donor B, IFNα 5000 U/ml (EC95)) it was 66 nM.

The values above are taken from paper PMC6857076 (Pharmacology Research & Perspectives, 2019).
